Laboratory results as given in PubChem BioAssay AID2685 (National Center for Advancing Translational Sciences (NCATS), 2010).
Values joined by “and” are separate entries in the source; they are usually repeats but may differ in a detail not shown here. Equal entries are not always repeated. Hit rate of the full screen: of about 320,000 compounds, about 2,100 (0.66%) were called active. This list was built around the results that the source calls inconclusive (neither active nor inactive); the mix of calls is not that of the screen. Calls come from the whole dose curve; as a rule, active = well fitted inhibition curve with a large enough effect in the signal ratio, with a control signal flat (not every such curve was filed as active); inconclusive = small, poorly fitted or top-dose-only effect, or effect the other way, or a change in a side signal; inactive = flat fitted curve, though single readings scatter; the % refers to the signal ratio. A potency beside an inconclusive call is a rough fit, not a confirmed value.

experiment: qHTS Assay for Lipid Storage Modulators in Drosophila S3 Cells; settings: BODIPY lipid droplet fluorescence, 18-24 h, cells fed with added oleic acid; lipid storage change, negative = inhibition: at 46.1 µM (top of the series) unless noted
How it was run: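 Drosophila S3 cells loaded with oleic acid (400 uM, as added) and compounds at several concentrations; lipid droplets imaged by 488-nm laser-scanning cytometry, 500–530 nm intensity and object ratio to cell channel. Percent activity normalized to 20 uM Triacsin C.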
% is set by controls: 0 for no effect and ±100 for the full control effect; potency is the fitted concentration of half-maximal effect.

SMILES | lipid storage change, negative = inhibition | Potency
Cc1c(-n2c(O)c(C3=c4ccccc4=NC3=O)sc2=S)c(=O)n(-c2ccccc2)n1C | inconclusive: 50.7% | –
Cc1ccc(N2C(=O)CC(Sc3nccc(C)n3)C2=O)cc1 (configuration not stated) | inconclusive: -24.2% | –
CC(OC(=O)CC1Sc2ccccc2NC1=O)C(=O)NC1CCCC1 (configuration not stated) | – | inconclusive: 0.116 µM [falling, full curve, poor fit]
CCOc1ccc(Cc2nc(C)c(CC(=O)N3CCOCC3)c(=O)[nH]2)cc1 | inconclusive: -12.9% | –
Cc1cccc(-c2c(O)cc(=O)[nH]c2Cl)c1 | inconclusive: -13.6% | –
COc1ccc(N/C(C)=C/C(=S)Nc2ccccc2)cc1 | inconclusive: 16.9% | –
O=C(Nc1ccc2c(c1)oc1ccccc12)C1CC1 | – | inconclusive: 2.91 µM [activator, full curve, poor fit]
Brc1ccc(-c2ccc(/C=N/Nc3nc4ccccc4[nH]3)o2)cc1 | – | inconclusive: 29.1 µM [cytotoxic, single point]
CCOC(=O)N1CCN(C(=O)/C(=C/c2cccc3ccccc23)NC(=O)c2ccc(OC)c(OC)c2)CC1 | inconclusive: 23.7% | –
CCCCCOC(=O)Cn1c(=O)c2c(nc(N3CCOCC3)n2C)n(C)c1=O | – | inconclusive: 3.66 µM [activator, single point]
Fc1ccc(Oc2ccc3nnc(C(F)(F)F)n3n2)cc1 | inconclusive: 15.2% | –
CCOC(=O)CNC(=O)CSc1nnc(NC(=O)c2ccc(S(=O)(=O)N3CCOCC3)cc2)s1 | inconclusive: 7.98% | –
C/C(=N/NS(=O)(=O)c1ccc(Br)cc1)c1ccc(NC(=O)c2ccc(C)o2)cc1 | inconclusive: -9.96% | –
CCOC(=O)C1=C(COCCN)NC(C)=C(C(=O)OC)C1c1ccccc1Cl (configuration not stated) | inconclusive: 22.3% and inconclusive: 24.2% | –
O=C(CCCN1C(=O)c2ccccc2C1=O)NCCCN1CCOCC1 | inconclusive: -33.5% | –
CCOC(=O)C1CCN(CC(O)COc2ccc(C(C)=O)cc2)CC1 (configuration not stated) | inconclusive: -38.6% | –
Cc1ccc(-c2nnc(CN3CCCCC3C)o2)cc1 (configuration not stated) | – | inconclusive: 7.31 µM [activator, partial curve, poor fit]
CN(C)c1ccc(C2Nc3ccccc3C(=O)N2CCCN2CCOCC2)cc1 (configuration not stated) | inconclusive: 5.17% | –
COc1ccc(NC(=O)c2cccc(N3C(=O)C4C5C=CC(C5)C4C3=O)c2)cc1 (configuration not stated) | – | inconclusive: 29.1 µM [falling, single point]
Cc1ccc2nc(-c3ccccn3)cc(C(=O)Nc3ccc4c(c3)OCO4)c2c1 | inconclusive: 26.4% | –
CCc1ccccc1NC(=O)CN1CCN(CC(=O)Nc2cc(C)ccc2OC)CC1 | – | inconclusive: 0.146 µM [activator, full curve, poor fit]
CCOc1ccccc1C(=O)n1nc2nc(C)cc(C)c2c1N | inactive | –
O=C(N[C@H]1CC1c1ccccc1)c1ccc([N+](=O)[O-])cc1 (some centres not stated) | inactive | –
Cc1ccccc1NS(=O)(=O)c1ccc(NC(=O)c2nc3ncccn3n2)cc1 | – | inconclusive: 3.66 µM [activator, partial curve]

SMILES | lipid storage change, negative = inhibition | Potency
COc1ccccc1CNC(=O)[C@@H]1CCCN1S(=O)(=O)c1ccccc1F | inconclusive: -50.2% | –
COc1ccc(C(=O)N2CC3(CC(c4cccc(NC(=O)CC(c5ccccc5)c5ccccc5)c4)=NO3)C[C@H]2C(N)=O)cc1 (some centres not stated) | inconclusive: -1.11% | –
CC1CN(C(=S)NC(=O)c2cccc([N+](=O)[O-])c2)CC(C)O1 (configuration not stated) | inconclusive: 12.8% | –
Cc1cc2ncc(-c3ccc(Cl)cc3)cn2n1 | inconclusive: -1.53% | –
COC(=O)c1cccc(-n2[nH]nnc2=S)c1 | inconclusive: -35.3% | –
Cc1ccc(NS(=O)(=O)c2ccc3c(c2)c(=O)n(C)c(=O)n3C)cc1F | inconclusive: -9.99% | –
O=C1CC(c2ccccc2)c2ccccc21 (configuration not stated) | – | inconclusive: 29.1 µM [falling, single point]
COc1cc2cc(C(C)(C)O)oc(=O)c2cc1OC | – | inconclusive: 20.6 µM [activator, single point]
Cc1ccc(NC(=O)CO/N=C/c2ccccc2C)c(C)c1 | – | inconclusive: 5.17 µM [rising, partial curve]
Cc1cc(C)c(S(=O)(=O)Nc2ccccc2C(=O)OCC(=O)NCc2ccccc2)c(C)c1 | inconclusive: 6.46% | –
Cc1cccn2c(=O)nc(SCC(=O)N3CCOCC3)nc12 | – | inconclusive: 4.11 µM [activator, full curve, poor fit]
CCN(CC)S(=O)(=O)N1CCN(S(=O)(=O)N2CCOCC2)CC1 | inconclusive: -7.85% | –
CC/C(=N/O)C(=O)c1ccc(Br)cc1 | inconclusive: 4.2% | –
O=[N+]([O-])c1ccc(-c2ccc(/C=N/Nc3nc(N4CCCCC4)nc(N4CCCCC4)n3)o2)cc1 | – | active: 5.17 µM
CCN(C(=O)COC(=O)/C=C/c1ccc(O)c(OC)c1)C1CCS(=O)(=O)C1 (configuration not stated) | – | active: 13 µM
O=C(CNC(=O)c1ccc(Br)o1)NCc1cccc(Cl)c1 | – | inconclusive: 0.651 µM [activator, single point]
CCN(CC)S(=O)(=O)c1ccc(N2CCOCC2)c(NC(=O)c2cc(C)cc(C)c2)c1 | inconclusive: 0.401% | –
CCOC(=O)c1c(NC(=O)C2=C(C)NC(=S)NC2c2ccc(F)cc2)sc(C)c1C (configuration not stated) | – | inconclusive: 2.31 µM [activator, partial curve]
C=CCN1C(=O)C2C(C(=O)NCc3ccccc3)C3C=CC2(O3)C1C(=O)NC(C)(C)C (configuration not stated) | inconclusive: 33.8% | –
CN(C)CCCN1C(=O)C(=O)/C(=C(/O)c2ccc(OCc3ccccc3)cc2)C1c1cccnc1 (configuration not stated) | inconclusive: -44.7% | –
CN(CC(=O)Nc1ccccc1Br)C(=O)c1cccnc1Nc1cccc(C(F)(F)F)c1 | – | inconclusive: 16.4 µM [falling, single point]
O=C(NCc1ccccc1)Nc1cccn(Cc2ccccc2)c1=O | – | inconclusive: 18.4 µM [activator, partial curve, poor fit]
O=C(CC1C(=O)NCCN1Cc1ccc(-c2ccccc2)cc1)NCC1CC1 (configuration not stated) | inconclusive: 22.2% | –

Structures listed so far containing an aryl thioether with sulfur outside any ring:
SMILES | lipid storage change, negative = inhibition | Potency
Cc1ccc(N2C(=O)CC(Sc3nccc(C)n3)C2=O)cc1 (configuration not stated) | inconclusive: -24.2% | –
CCOC(=O)CNC(=O)CSc1nnc(NC(=O)c2ccc(S(=O)(=O)N3CCOCC3)cc2)s1 | inconclusive: 7.98% | –
Cc1cccn2c(=O)nc(SCC(=O)N3CCOCC3)nc12 | – | inconclusive: 4.11 µM [activator, full curve, poor fit]
